Measurements: patent US7994093B2, “Heterocyclocarboxamide derivatives” (Syngenta Crop Protection, Inc., priority 2002, dated 2011)
Some results were stated once for a whole list of compounds, not compound by compound. Some compounds share one range, which may span the group rather than tell each member.

Columns and labels:
Erysiphe graminis [1] = test: Action against Erysiphe graminis/barley (powdery mildew on barley); assay type: in vivo; settings: 0.02% active ingredient, spray; barley cv. Regina; inoculated one day after application; 6 days incubation
Helminthosporium teres = test: Action against Helminthosporium teres/barley (net blotch on barley); assay type: in vivo; settings: 0.02% active ingredient, spray; barley cv. Regina; inoculated two days after application; 4 days incubation
Alternaria solani = test: Action against Alternaria solani/tomato (early blight on tomatoes); assay type: in vivo; settings: 0.02% active ingredient, spray; tomato cv. Roter Gnom; inoculated two days after application; 3 days incubation
Puccinia recondita [2] = test: Action against Puccinia recondita/wheat (brownrust on wheat); assay type: in vivo; settings: 0.02% active ingredient, spray; wheat cv. Arina; inoculated one day after application; assessed 10 days after inoculation
Fusarium culmorum = assay type: in vivo; settings: 0.002% active ingredient mixed with conidia suspension, pouch; wheat cv. Orestis; brown lesions on the roots
Puccinia recondita [3] = test: Action against Puccinia recondita/wheat (brownrust on wheat) (pouch test); assay type: in vivo; settings: 0.002% active ingredient applied into pouch; wheat cv. Arina; assessed 10 days after inoculation; systemic activity
Rhizoctonia solani = test: Action against Rhizoctonia solani/rice (sheath blight on rice) (pouch test); assay type: in vivo; settings: 0.002% active ingredient added to mycelium suspension, rice cv. Koshihikari, 10 days, brown lesions on the roots
Erysiphe graminis [4] = test: Systemic action against Erysiphe graminis/barley (powdery mildew on barley) (pouch test); assay type: in vivo; settings: 0.002% active ingredient applied into pouch; barley cv. Express; inoculated one week after sowing; 6 days incubation; systemic activity
Septoria nodorum [5] = test: Action against Septoria nodorum/wheat (Septoria leaf spot on wheat) (pouch test); assay type: in vivo; settings: 0.002% active ingredient applied into pouch; wheat cv. Arina; inoculated one week after sowing; systemic activity
Gaeumannomyces graminis = test: Action Gaeumannomyces graminis/wheat (take-all on wheat) (pouch test); assay type: in vivo; settings: 0.002% active ingredient added to mycelium suspension, wheat cv. Orestis, 14 days, degree of root browning
Podosphaera leucotricha = test: Action against Podosphaera leucotricha/apple (powdery mildew on apple); assay type: in vivo; settings: 0.02% active ingredient, spray; apple seedlings cv. McIntosh; inoculated one day after application; 12 days incubation
Venturia inaequalis = test: Action against Venturia inaequalis/apple (scab on apple); assay type: in vivo; settings: 0.02% active ingredient, spray; apple seedlings cv. McIntosh; inoculated one day after application
Botrytis cinerea [6] = test: Action against Botrytis cinerea/tomato (Botrytis on tomatoes); assay type: in vivo; settings: 0.02% active ingredient, spray; tomato cv. Roter Gnom; inoculated two days after application; 4 days incubation
Septoria nodorum [7] = test: Action against Septoria nodorum/wheat (Septoria leaf spot on wheat); assay type: in vivo; settings: 0.02% active ingredient, spray; wheat cv. Arina; inoculated one day after application; assessed 11 days after inoculation
Uncinula necator = test: Action against Uncinula necator/grape (powdery mildew on grapes); assay type: in vivo; settings: 0.02% active ingredient, spray; grape seedlings cv. Gutedel; inoculated one day after application; 7 days incubation
Botrytis cinerea [8] = test: Action against Botrytis cinerea/grape (Botrytis on grapes); settings: 0.02% active ingredient, spray; grape seedlings cv. Gutedel; inoculated two days after application; 4 days incubation

Structure (SMILES) | disease incidence (Fusarium culmorum) | disease incidence (Puccinia recondita [3]) | disease incidence (Rhizoctonia solani) | disease incidence (Gaeumannomyces graminis) | other results
Cn1cc(C(=O)Nc2cccc3c2C2(C)CCC3(C)O2)c(C(F)(F)F)c1 (centres unmarked) [Compound 3.023, 1-methyl-4-trifluoromethyl-1H-pyrrole-3-carboxylic acid(1,8-dimethyl-11-oxa-tricyclo[6.2.1.0*2,7*]undeca-2,4,6-trien-3-yl)-amide] |  |  |  |  | infestation (Erysiphe graminis [1]): < 20%; disease incidence (Helminthosporium teres): < 20%; disease incidence (Alternaria solani): < 20%
Cn1cc(C(=O)Nc2cccc3c2C2CCC3O2)c(C(F)(F)F)c1 (centres unmarked) [Compound 3.035] | < 50% | < 50% | < 50% |  | infestation (Puccinia recondita [2]): 0-5%
Cn1cc(C(=O)Nc2cccc3c2C2CCC3C2)c(C(F)F)c1 (centres unmarked) [Compound 4.048] |  |  | < 50% |  | 
C#CCN(C(=O)c1cn(C)nc1C(F)(F)F)c1cccc2c1C1(C)CCC2(C)O1 (centres unmarked) [Compound 14.024] | < 50% | < 50% |  |  | disease incidence (Erysiphe graminis [4]): < 50%
Cn1cc(C(=O)Nc2cccc3c2C2(C)CCC3O2)c(C(F)(F)F)n1 (centres unmarked) [Compound 14.027] | < 50% |  |  |  | disease incidence (Septoria nodorum [5]): < 50%
Cn1cc(C(=O)Nc2cccc3c2C2CCC3(C)O2)c(C(F)F)n1 (centres unmarked) [Compound 15.028] |  |  |  | < 50% | 
Cn1cc(C(=O)Nc2cccc3c2C2CCC3C2)c(C(F)F)n1 (centres unmarked) [Compound 15.048] | < 50% | < 50% | < 50% | < 50% | infestation (Puccinia recondita [2]): 0-5%; infestation (Podosphaera leucotricha): < 20%; infestation (Venturia inaequalis): < 20%; infestation (Erysiphe graminis [1]): < 20%; disease incidence (Botrytis cinerea [6]): < 50%; disease incidence (Septoria nodorum [7]): < 50%; disease incidence (Helminthosporium teres): < 20%; disease incidence (Alternaria solani): < 20%; disease incidence (Uncinula necator): < 20%; disease incidence (Septoria nodorum [5]): < 50%; disease incidence (Botrytis cinerea [8]): < 50%
Cn1cc(C(=O)Nc2cccc3c2C2C=CC3C2)c(C(F)F)n1 (centres unmarked) [Compound 15.052] |  |  |  | < 50% | 
Cc1nn(C)c(F)c1C(=O)Nc1cccc2c1C1CCC2C1 (centres unmarked) [Compound 20.048] | < 50% | < 50% | < 50% | < 50% | infestation (Puccinia recondita [2]): 0-5%
Cc1nn(C)c(Cl)c1C(=O)Nc1cccc2c1C1CCC2C1 (centres unmarked) [Compound 21.048] |  |  |  | < 50% | 
Cc1nc(C(F)(F)F)c(C(=O)Nc2cccc3c2C2CCC3C2)o1 (centres unmarked) [Compound 24.048] | < 50% |  |  |  | 
O=C(Nc1cccc2c1C1C=CC2C1)c1cccnc1Cl (centres unmarked) [Compound 29.052] |  |  | < 50% |  | 
